Data published in PMC4811775.
Results are given in words; binding and its absence hold for the method and conditions named. Binding seen in cells or lysates may run through a third protein. Some binding calls cover weakened binding; strength is not graded here.

Molecular target: Polo-like kinase 1 (PLK1), endogenous (human (endogenous in HeLa)) (UniProt P53350)
Assay: co-IP; endogenous proteins from HeLa cell lysates (RIPA buffer), control conditions or nocodazole treatment to arrest cells at M phase; polyclonal antibodies and protein A-Sepharose, 1 hr; Western blot

“CRAF, endogenous (from UniProt P04049 1-648)” was tested, and the binding was “binds”.
